Source: patent US20110144303A1 (AILERON Therapeutics, Inc., priority 2008, published 2011)

Test: general procedure: Fmoc solid-phase peptide synthesis; Rink AM resin (polystyrene); HCTU
Details: whole synthesis, scale 0.1 mmol, HCl exchange by lyophilisation for SP-41 and SP-27 type peptides, cyclic, sequence written open; run 1

Substance: Ac-IWIAQELR#sIGD#sFNAYYARR-NH2
- isolated mass: 5.4 mg and 5.7 mg

Where “and” joins values, the source holds several entries; their conditions need not be identical. Equal values may be shown once.
